Assay: peptide synthesis
Details: whole synthesis, HPLC

| Substance | purity (crude or final not stated) |
| --- | --- |
| Benz-YFYLLG-NH2 (N-terminal benzoyl; C-terminal amide) | 97.24% |
| Benz-FFFLL-G-CGEWIET | 97.77% |
| Benz-FFFLLG-NH2 (N-terminal benzoyl; C-terminal amide) | 96.45% |
